The values below come from paper doi:10.1101/585497.

Protein sequences, listed by entry. Tags and fused reporters are not part of them.
UniProt P25963: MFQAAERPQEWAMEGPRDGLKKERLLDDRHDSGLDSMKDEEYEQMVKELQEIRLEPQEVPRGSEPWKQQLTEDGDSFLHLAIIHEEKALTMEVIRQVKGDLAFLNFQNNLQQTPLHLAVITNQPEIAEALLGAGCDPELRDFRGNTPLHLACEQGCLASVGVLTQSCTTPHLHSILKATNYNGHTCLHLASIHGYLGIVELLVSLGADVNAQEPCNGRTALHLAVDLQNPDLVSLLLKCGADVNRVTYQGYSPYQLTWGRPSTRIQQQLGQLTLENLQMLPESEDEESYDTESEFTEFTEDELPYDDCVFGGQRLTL
UniProt P49792: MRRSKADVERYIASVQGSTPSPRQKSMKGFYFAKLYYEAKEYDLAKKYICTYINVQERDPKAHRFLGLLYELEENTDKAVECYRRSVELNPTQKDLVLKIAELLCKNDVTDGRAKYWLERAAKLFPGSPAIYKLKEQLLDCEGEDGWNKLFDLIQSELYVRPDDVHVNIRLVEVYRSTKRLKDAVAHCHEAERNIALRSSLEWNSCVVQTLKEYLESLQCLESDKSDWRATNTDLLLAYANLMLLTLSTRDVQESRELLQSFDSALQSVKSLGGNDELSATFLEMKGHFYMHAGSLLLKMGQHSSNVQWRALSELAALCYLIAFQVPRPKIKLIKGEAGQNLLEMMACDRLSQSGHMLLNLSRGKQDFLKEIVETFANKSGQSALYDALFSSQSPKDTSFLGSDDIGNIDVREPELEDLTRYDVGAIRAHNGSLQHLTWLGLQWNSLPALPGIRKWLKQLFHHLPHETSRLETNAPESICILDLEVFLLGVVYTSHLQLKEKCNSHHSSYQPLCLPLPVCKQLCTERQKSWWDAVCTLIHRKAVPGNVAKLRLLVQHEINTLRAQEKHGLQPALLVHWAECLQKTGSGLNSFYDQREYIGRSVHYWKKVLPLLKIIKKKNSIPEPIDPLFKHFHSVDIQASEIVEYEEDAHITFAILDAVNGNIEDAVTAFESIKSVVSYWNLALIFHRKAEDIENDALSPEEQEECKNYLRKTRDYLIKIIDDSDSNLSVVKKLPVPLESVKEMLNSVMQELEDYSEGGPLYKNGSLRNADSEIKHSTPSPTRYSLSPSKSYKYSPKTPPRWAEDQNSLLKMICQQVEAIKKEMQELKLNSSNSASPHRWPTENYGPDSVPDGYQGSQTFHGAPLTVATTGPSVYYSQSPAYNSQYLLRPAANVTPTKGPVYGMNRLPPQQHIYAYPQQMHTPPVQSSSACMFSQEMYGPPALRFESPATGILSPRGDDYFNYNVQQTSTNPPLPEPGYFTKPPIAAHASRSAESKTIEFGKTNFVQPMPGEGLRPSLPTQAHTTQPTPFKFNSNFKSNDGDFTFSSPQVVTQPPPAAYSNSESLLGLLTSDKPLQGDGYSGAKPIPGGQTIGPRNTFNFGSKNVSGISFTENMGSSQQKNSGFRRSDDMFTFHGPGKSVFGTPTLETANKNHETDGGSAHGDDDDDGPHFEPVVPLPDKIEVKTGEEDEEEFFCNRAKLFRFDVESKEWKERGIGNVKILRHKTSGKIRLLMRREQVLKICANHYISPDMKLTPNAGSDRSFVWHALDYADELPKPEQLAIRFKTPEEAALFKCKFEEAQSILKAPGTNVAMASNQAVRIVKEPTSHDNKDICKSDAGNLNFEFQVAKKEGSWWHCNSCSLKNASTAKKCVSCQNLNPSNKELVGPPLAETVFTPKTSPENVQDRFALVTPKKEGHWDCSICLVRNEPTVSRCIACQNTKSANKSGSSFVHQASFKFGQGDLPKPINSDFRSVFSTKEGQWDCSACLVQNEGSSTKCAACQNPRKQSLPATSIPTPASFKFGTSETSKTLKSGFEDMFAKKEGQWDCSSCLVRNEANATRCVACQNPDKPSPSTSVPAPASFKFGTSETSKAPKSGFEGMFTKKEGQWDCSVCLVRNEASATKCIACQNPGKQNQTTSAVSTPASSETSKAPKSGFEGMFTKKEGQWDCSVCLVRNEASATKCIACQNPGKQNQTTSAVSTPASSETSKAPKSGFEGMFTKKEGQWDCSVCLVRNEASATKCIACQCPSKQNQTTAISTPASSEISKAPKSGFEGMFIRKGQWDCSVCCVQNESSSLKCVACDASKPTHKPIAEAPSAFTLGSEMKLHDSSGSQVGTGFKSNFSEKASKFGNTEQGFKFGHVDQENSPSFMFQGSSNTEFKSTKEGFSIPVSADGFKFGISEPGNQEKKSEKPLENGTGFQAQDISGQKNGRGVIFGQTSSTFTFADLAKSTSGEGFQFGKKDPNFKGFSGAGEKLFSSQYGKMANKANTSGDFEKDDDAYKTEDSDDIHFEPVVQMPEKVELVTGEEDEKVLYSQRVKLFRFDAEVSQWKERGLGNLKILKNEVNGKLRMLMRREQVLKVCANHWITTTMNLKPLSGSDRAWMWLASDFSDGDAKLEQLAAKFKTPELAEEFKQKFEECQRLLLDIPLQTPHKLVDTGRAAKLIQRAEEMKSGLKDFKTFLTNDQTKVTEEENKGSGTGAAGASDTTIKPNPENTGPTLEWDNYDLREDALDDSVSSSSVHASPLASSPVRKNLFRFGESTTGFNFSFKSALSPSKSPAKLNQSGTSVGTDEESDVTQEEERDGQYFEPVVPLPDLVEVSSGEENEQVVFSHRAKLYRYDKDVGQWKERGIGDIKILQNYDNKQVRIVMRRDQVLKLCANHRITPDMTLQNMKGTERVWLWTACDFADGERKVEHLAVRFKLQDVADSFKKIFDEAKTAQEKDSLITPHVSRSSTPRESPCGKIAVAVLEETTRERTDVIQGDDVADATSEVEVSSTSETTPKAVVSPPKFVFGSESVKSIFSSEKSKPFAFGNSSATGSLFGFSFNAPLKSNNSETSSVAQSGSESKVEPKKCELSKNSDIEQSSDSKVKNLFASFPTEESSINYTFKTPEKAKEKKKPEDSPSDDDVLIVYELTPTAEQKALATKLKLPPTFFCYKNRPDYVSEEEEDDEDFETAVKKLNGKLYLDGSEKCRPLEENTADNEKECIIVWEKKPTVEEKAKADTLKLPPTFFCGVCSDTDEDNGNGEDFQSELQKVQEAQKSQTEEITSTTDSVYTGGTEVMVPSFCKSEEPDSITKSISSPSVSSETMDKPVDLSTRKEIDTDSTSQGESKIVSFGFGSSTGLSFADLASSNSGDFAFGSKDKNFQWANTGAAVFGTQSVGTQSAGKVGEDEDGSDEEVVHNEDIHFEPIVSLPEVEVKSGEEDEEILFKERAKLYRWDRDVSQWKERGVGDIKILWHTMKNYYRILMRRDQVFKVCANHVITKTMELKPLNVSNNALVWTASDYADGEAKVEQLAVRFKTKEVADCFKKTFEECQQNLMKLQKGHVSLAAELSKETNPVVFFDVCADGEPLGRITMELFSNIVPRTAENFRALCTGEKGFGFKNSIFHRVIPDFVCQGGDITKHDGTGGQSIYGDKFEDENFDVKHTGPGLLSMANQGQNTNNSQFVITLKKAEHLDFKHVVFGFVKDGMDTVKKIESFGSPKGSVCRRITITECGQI
UniProt P49790: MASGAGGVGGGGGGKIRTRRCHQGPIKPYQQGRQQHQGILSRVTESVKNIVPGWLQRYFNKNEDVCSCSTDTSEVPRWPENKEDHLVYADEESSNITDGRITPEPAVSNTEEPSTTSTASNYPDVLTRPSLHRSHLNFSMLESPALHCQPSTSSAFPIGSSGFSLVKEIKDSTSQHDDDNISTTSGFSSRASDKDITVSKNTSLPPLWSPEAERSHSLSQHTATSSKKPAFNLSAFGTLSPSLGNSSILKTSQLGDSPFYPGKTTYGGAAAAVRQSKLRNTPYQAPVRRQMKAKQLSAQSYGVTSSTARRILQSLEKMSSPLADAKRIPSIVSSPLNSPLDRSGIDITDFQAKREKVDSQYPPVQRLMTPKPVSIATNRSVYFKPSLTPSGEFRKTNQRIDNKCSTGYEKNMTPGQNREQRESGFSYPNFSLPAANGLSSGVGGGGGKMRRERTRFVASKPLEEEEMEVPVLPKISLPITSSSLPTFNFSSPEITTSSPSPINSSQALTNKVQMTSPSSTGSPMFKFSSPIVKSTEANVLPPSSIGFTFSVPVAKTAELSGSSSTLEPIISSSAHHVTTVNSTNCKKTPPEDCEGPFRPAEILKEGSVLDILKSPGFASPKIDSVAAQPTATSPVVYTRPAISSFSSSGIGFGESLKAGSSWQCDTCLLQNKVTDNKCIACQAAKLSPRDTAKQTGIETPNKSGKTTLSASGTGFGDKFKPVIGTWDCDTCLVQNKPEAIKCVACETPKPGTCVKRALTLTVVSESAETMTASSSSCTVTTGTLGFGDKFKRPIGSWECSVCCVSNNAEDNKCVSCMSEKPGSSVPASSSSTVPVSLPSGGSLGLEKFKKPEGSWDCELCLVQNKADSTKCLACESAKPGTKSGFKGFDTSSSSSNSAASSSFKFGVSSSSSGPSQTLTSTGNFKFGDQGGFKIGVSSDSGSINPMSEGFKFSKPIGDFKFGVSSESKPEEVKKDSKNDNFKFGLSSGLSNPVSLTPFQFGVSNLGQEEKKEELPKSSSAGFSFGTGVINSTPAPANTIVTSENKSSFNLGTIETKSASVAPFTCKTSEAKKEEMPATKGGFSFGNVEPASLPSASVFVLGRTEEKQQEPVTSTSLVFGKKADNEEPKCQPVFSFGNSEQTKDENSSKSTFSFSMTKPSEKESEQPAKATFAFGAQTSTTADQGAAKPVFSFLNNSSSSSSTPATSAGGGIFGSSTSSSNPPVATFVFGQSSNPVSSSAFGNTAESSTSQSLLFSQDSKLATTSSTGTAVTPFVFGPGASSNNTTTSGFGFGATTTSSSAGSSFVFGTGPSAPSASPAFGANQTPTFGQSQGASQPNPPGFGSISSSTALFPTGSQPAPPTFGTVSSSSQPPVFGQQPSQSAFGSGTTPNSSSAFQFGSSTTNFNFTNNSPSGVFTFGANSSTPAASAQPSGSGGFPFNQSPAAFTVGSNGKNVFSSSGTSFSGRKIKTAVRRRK
UniProt P19838: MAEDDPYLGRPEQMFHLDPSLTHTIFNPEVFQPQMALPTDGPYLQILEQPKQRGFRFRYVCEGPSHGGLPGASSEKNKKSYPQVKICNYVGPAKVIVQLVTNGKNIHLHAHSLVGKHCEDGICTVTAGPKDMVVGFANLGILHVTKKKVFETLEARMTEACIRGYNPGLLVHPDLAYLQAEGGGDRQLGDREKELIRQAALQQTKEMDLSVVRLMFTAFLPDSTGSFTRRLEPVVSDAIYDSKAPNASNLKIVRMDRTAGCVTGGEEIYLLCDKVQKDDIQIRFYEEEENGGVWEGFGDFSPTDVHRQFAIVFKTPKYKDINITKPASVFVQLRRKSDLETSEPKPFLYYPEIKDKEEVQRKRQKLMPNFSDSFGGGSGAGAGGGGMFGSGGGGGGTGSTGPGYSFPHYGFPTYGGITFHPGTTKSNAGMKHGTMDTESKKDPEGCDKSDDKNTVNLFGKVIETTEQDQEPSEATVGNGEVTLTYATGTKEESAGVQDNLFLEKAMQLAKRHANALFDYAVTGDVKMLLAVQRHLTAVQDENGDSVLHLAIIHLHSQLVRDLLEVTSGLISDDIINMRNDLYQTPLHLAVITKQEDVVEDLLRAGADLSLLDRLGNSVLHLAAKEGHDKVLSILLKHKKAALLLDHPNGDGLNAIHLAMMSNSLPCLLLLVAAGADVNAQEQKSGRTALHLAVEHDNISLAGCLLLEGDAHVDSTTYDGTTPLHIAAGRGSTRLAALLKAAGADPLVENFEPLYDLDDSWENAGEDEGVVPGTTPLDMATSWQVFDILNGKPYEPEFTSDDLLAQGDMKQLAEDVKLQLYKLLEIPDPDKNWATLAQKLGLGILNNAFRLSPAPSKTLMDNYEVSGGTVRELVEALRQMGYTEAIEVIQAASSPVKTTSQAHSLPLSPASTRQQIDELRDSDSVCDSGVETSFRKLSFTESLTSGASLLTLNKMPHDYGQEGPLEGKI

To fix the notation:
B1: Nup155 (protein, UniProt O75694 1-1391)
chain: MPSSLLGAAMPASTSAAALQEALENAGRLIDRQLQEDRMYPDLSELLMVSAPNNPTVSGMSDMDYPLQGPGLLSVPNLPEISSIRRVPLPPELVEQFGHMQCNCMMGVFPPISRAWLTIDSDIFMWNYEDGGDLAYFDGLSETILAVGLVKPKAGIFQPHVRHLLVLATPVDIVILGLSYANLQTGSGVLNDSLSGGMQLLPDPLYSLPTDNTYLLTITSTDNGRIFLAGKDGCLYEVAYQAEAGWFSQRCRKINHSKSSLSFLVPSLLQFTFSEDDPILQIAIDNSRNILYTRSEKGVIQVYDLGQDGQGMSRVASVSQNAIVSAAGNIARTIDRSVFKPIVQIAVIENSESLDCQLLAVTHAGVRLYFSTCPFRQPLARPNTLTLVHVRLPPGFSASSTVEKPSKVHRALYSKGILLMAASENEDNDILWCVNHDTFPFQKPMMETQMTAGVDGHSWALSAIDELKVDKIITPLNKDHIPITDSPVVVQQHMLPPKKFVLLSAQGSLMFHKLRPVDQLRHLLVSNVGGDGEEIERFFKLHQEDQACATCLILACSTAACDREVSAWATRAFFRYGGEAQMRFPTTLPPPSNVGPILGSPVYSSSPVPSGSPYPNPSFLGTPSHGIQPPAMSTPVCALGNPATQATNMSCVTGPEIVYSGKHNGICIYFSRIMGNIWDASLVVERIFKSGNREITAIESSVPCQLLESVLQELKGLQEFLDRNSQFAGGPLGNPNTTAKVQQRLIGFMRPENGNPQQMQQELQRKFHEAQLSEKISLQAIQQLVRKSYQALALWKLLCEHQFTIIVAELQKELQEQLKITTFKDLVIRDKELTGALIASLINCYIRDNAAVDGISLHLQDICPLLYSTDDAICSKANELLQRSRQVQNKTEKERMLRESLKEYQKISNQVDLSNVCAQYRQVRFYEGVVELSLTAAEKKDPQGLGLHFYKHGEPEEDIVGLQAFQERLNSYKCITDTLQELVNQSKAAPQSPSVPKKPGPPVLSSDPNMLSNEEAGHHFEQMLKLSQRSKDELFSIALYNWLIQVDLADKLLQVASPFLEPHLVRMAKVDQNRVRYMDLLWRYYEKNRSFSNAARVLSRLADMHSTEISLQQRLEYIARAILSAKSSTAISSIAADGEFLHELEEKMEVARIQLQIQETLQRQYSHHSSVQDAVSQLDSELMDITKLYGEFADPFKLAECKLAIIHCAGYSDPILVQTLWQDIIEKELSDSVTLSSSDRMHALSLKIVLLGKIYAGTPRFFPLDFIVQFLEQQVCTLNWDVGFVIQTMNEIGVPLPRLLEVYDQLFKSRDPFWNRMKKPLHLLDCIHVLLIRYVENPSQVLNCERRRFTNLCLDAVCGYLVELQSMSSSVAVQAITGNFKSLQAKLERLH
B2: NFKB2 (protein, UniProt Q00653)
chain: MESCYNPGLDGIIEYDDFKLNSSIVEPKEPAPETADGPYLVIVEQPKQRGFRFRYGCEGPSHGGLPGASSEKGRKTYPTVKICNYEGPAKIEVDLVTHSDPPRAHAHSLVGKQCSELGICAVSVGPKDMTAQFNNLGVLHVTKKNMMGTMIQKLQRQRLRSRPQGLTEAEQRELEQEAKELKKVMDLSIVRLRFSAFLRASDGSFSLPLKPVISQPIHDSKSPGASNLKISRMDKTAGSVRGGDEVYLLCDKVQKDDIEVRFYEDDENGWQAFGDFSPTDVHKQYAIVFRTPPYHKMKIERPVTVFLQLKRKRGGDVSDSKQFTYYPLVEDKEEVQRKRRKALPTFSQPFGGGSHMGGGSGGAAGGYGGAGGGGSLGFFPSSLAYSPYQSGAGPMGCYPGGGGGAQMAATVPSRDSGEEAAEPSAPSRTPQCEPQAPEMLQRAREYNARLFGLAQRSARALLDYGVTADARALLAGQRHLLTAQDENGDTPLHLAIIHGQTSVIEQIVYVIHHAQDLGVVNLTNHLHQTPLHLAVITGQTSVVSFLLRVGADPALLDRHGDSAMHLALRAGAGAPELLRALLQSGAPAVPQLLHMPDFEGLYPVHLAVRARSPECLDLLVDSGAEVEATERQGGRTALHLATEMEELGLVTHLVTKLRANVNARTFAGNTPLHLAAGLGYPTLTRLLLKAGADIHAENEEPLCPLPSPPTSDSDSDSEGPEKDTRSSFRGHTPLDLTCSTKVKTLLLNAAQNTMEPPLTPPSPAGPGLSLGDTALQNLEQLLDGPEAQGSWAELAERLGLRSLVDTYRQTTSPSGSLLRSYELAGGDLAGLLEALSDMGLEEGVRLLRGPETRDKLPSTAEVKEDSAYGSQSVEQEAEKLGPPPEPPGGLCHGHPQPQVH
B3: Nup93 (protein, UniProt Q8N1F7 1-819)
chain: MDTEGFGELLQQAEQLAAETEGISELPHVERNLQEIQQAGERLRSRTLTRTSQETADVKASVLLGSRGLDISHISQRLESLSAATTFEPLEPVKDTDIQGFLKNEKDNALLSAIEESRKRTFGMAEEYHRESMLVEWEQVKQRILHTLLASGEDALDFTQESEPSYISDVGPPGRSSLDNIEMAYARQIYIYNEKIVNGHLQPNLVDLCASVAELDDKSISDMWTMVKQMTDVLLTPATDALKNRSSVEVRMEFVRQALAYLEQSYKNYTLVTVFGNLHQAQLGGVPGTYQLVRSFLNIKLPAPLPGLQDGEVEGHPVWALIYYCMRCGDLLAASQVVNRAQHQLGEFKTWFQEYMNSKDRRLSPATENKLRLHYRRALRNNTDPYKRAVYCIIGRCDVTDNQSEVADKTEDYLWLKLNQVCFDDDGTSSPQDRLTLSQFQKQLLEDYGESHFTVNQQPFLYFQVLFLTAQFEAAVAFLFRMERLRCHAVHVALVLFELKLLLKSSGQSAQLLSHEPGDPPCLRRLNFVRLLMLYTRKFESTDPREALQYFYFLRDEKDSQGENMFLRCVSELVIESREFDMILGKLENDGSRKPGVIDKFTSDTKPIINKVASVAENKGLFEEAAKLYDLAKNADKVLELMNKLLSPVVPQISAPQSNKERLKNMALSIAERYRAQGISANKFVDSTFYLLLDLITFFDEYHSGHIDRAFDIIERLKLVPLNQESVEERVAAFRNFSDEIRHNLSEVLLATMNILFTQFKRLKGTSPSSSSRPQRVIEDRDSQLRSQARTLITFAGMIPYRTSGDTNARLVQMEVLMN

No constants are given. Whether binding was seen depends on the method and setting. In cells and extracts the contact can be indirect. A yes stands for co-enrichment or nearness to the bait. Other partners may have been found.

For this assay, the target named is N-terminally mEmerald (GFP)-tagged IκBα (UniProt P25963). The assay is described as follows: affinity purification with mass spectrometry.
Take “Nup358/SUMO E3-ligase RANBP2 (from UniProt P49792 1-3224)”: the binding entry is given as “binds”.

On to “Nup153 (endogenous, HEK293T) (from UniProt P49790 1-1475)”, for which the binding result is “binds”.

On to NFKB1 (from UniProt P19838), for which the binding result is given as “binds”.

B1: the binding result is “binds”.

For B2, the binding entry is on record as “binds”.

In the case of B3, the binding result is listed as “binds”.
